In assay [1] the target is T1, Ig.nephrin, membrane-bound fusion protein of nephrin AA 1087-1221 (human) (UniProt O60500).
T1 sequence: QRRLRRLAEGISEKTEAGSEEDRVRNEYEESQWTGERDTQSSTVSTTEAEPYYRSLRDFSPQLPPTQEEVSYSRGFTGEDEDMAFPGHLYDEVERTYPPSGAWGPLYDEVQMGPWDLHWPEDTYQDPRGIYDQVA
Kind of assay: co-IP; HEK293T transiently transfected (Ig.nephrin fusion, partner, AT1 receptor), with or without Ang II (1 μM, up to 60 min) and inhibitors (candesartan, PP2, PTX, Ly294002, U73122) or GNAQ siRNA; 1% Triton X-100 lysate, protein G sepharose 1 h at 4 °C; Western blot.

Sequences of proteins named here, by UniProt entry; tags and fusion partners are left off.
UniProt P29067: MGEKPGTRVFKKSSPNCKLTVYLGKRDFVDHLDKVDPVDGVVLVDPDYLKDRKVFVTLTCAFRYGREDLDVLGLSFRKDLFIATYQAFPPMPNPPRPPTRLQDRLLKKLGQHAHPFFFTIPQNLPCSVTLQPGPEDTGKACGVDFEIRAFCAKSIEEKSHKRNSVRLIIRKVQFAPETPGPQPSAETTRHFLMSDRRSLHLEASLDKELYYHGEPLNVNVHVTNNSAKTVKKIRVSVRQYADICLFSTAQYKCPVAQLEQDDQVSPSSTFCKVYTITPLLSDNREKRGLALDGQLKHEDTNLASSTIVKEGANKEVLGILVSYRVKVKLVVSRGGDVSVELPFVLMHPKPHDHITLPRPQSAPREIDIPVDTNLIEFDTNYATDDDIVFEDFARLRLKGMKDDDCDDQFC
UniProt O43639: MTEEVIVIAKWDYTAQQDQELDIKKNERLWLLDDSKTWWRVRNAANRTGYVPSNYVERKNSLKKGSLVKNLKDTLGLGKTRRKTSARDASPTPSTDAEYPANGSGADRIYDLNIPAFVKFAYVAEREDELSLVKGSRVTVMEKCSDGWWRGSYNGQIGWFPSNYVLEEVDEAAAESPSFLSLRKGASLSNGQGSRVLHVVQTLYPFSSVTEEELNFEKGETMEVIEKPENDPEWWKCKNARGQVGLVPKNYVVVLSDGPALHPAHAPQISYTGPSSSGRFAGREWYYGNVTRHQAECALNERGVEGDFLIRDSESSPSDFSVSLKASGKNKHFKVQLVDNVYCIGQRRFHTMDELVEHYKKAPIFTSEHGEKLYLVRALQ

The target in assay [2] is T2, Ig.nephrin, membrane-bound fusion protein of the C-terminal cytoplasmic domain of nephrin (AA 1087-1241) (human) (UniProt O60500).
T2 sequence: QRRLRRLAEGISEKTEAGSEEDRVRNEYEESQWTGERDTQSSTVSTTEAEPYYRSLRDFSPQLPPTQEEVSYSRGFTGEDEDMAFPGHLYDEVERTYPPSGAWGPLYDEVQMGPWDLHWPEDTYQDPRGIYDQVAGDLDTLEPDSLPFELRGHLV
The assay is described as above.

No constants are given. Whether binding was seen depends on the method and setting. In cells and extracts the contact can be indirect. Some results given as binding are weak or reduced against the parent protein; the word gives no strength. Where a sequence is shown, tags or fusion partners need not be part of it.

Consider “FLAG-tagged β-arrestin2 (from UniProt P29067 1-410)”, for which the binding result in assay [1] and in assay [2] was “binds” each time.

With Nck2 (from UniProt O43639 1-380), the binding result in assay [2] is recorded as “binds”.

These data come from PMC5177899.
